According to PubChem BioAssay AID1487 (National Center for Advancing Translational Sciences (NCATS), 2009):
The list shows a part of the results. Shown are side measurements of this screen, not its main read-out; they come without a call. Compounds called inactive in the main read-out are mostly missing here. Potencies come from curve fits of mixed quality, noted in brackets.

Experiment: qHTS Assay for Modulators of Lamin A Splicing
Conditions: HeLa LMNA splicing GFP/RFP minigene ratio, 48 h
Outline: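 Read-out is the ratio of GFP to DsRed2 object intensity, acquired by 488 nm laser-scanning cytometry on HeLa lamin A-EGFP minigene reporter cells. Compound incubation 48 hrs at 37 °C in Opti-MEM with 2% FBS; DMSO 0.5% final.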

[1] = measured here: GFP splicing reporter channel
[2] = measured here: RFP viability control channel

| SMILES | AC50 [1] | AC50 [2] |
| --- | --- | --- |
| CCCc1[nH]nc2c1C(C1CCCCC1)C(C#N)=C(N)O2 (centres undefined) | 15.8 µM [falling, single point] | – |
| Cc1cc(NC(=O)CCN2C(=O)C3C4C=CC(C4)C3C2=O)ccc1Br (centres undefined) | – | 0.0316 µM [falling, full curve, poor fit] |
| COc1cc(/C=N/Nc2ccc(C(=O)O)cc2)ccc1O | 0.02 µM [rising, full curve, poor fit] | – |
| CCCCn1c(/C=C/c2ccco2)nc2ccccc21 | 28.2 µM [falling, partial curve, poor fit] | 28.2 µM [falling, partial curve] |
| CCOc1ccccc1C(=O)N[C@H](C(=O)Nc1ccc(OC)c(S(=O)(=O)N2CCOCC2)c1)C(C)C | – | 0.0316 µM [falling, full curve, poor fit] |
| COc1cc(C2c3c(-c4cc(Cl)c(C)cc4O)n[nH]c3C(=O)N2Cc2cccnc2)ccc1O (centres undefined) | 10 µM [rising, single point] | 11.2 µM [rising, single point] |
| N#C/C(=C\c1cn[nH]c1-c1ccccc1Br)C(=O)O | – | 0.00316 µM [falling, full curve, poor fit] |
| CC(C)OC(=O)c1cccc(C(=O)OCc2ccco2)n1 | – | 35.5 µM [rising, single point] |
| COC(=O)c1ccccc1NC(=O)N1c2ccccc2Sc2ccccc21 | – | 35.5 µM [rising, single point] |
| CCC(C)Nc1nnnc2c1sc1nc3c(cc12)COC(C)(C)C3 (centres undefined) | 8.91 µM [falling, partial curve, poor fit] | – |
| COC(=O)C1=C(C)N(C)C(C)=C(C(=O)OC)C1c1ccc(F)c(Br)c1 | – | 22.4 µM [rising, single point] |
| Cc1nc(-c2ccc(F)cc2)sc1CCNC(=O)c1ccco1 | – | 5.62 µM [falling, single point] |
| COc1cc(NC(=O)Cn2c(C)cc3ccccc3c2=O)cc(OC)c1OC | 0.282 µM [rising, full curve, poor fit] | – |
| CN1c2ccccc2Oc2nnc(N3CCN(Cc4ccccc4)CC3)cc21 | 8.91 µM [falling, partial curve] | 6.31 µM [falling, full curve] |
| CCOC(=O)c1cc(-c2ccccc2)n(CCCC(=O)Nc2cccc(Cl)c2C)c1C | – | 35.5 µM [falling, single point] |
| O=C(NNS(=O)(=O)c1ccc2ccccc2c1)c1cccs1 | – | 35.5 µM [rising, single point] |
| CC(C)(C)NC(=O)c1cccc(NC(=O)CSc2ccc(Cl)cc2)c1 | – | 35.5 µM [rising, single point] |
| COc1ccccc1NC(=O)Nc1nc(-c2cccnc2)nc2ccccc12 | 5.62 µM [falling, single point] | 3.16 µM [falling, single point] |
| CC(C)Cc1nc(N2CCN(C(=O)c3ccccc3)CC2)c(C#N)c2c1CCC2 | 22.4 µM [falling, single point] | 15.8 µM [falling, partial curve] |
| CCN(CC)c1ccc(/C=C(\C#N)C(=O)NCc2ccccc2)cc1 | – | 0.0158 µM [rising, full curve, poor fit] |
| Cn1c(=O)c2c(nc(N3CCOCC3)n2CCCNC2=NCCC2)n(C)c1=O | – | 0.0251 µM [falling, full curve, poor fit] |
| Cc1ccccc1-n1nc(C)c2cc(C(=O)N3CCOCC3)sc21 | 35.5 µM [rising, single point] | 35.5 µM [rising, single point] |
| COc1ccc(C(=O)N/N=C(\c2ccccc2)c2ccccn2)cc1 | 2.24 µM [rising, full curve, poor fit] | 3.16 µM [rising, full curve] |
| Cc1ccc(S(=O)(=O)N/N=C/c2cc([N+](=O)[O-])ccc2O)cc1[N+](=O)[O-] | 4.47 µM [rising, full curve] | – |
| O=C(NCC1(c2ccccc2)CCCC1)c1ccccc1Br | 10 µM [rising, partial curve, poor fit] | 14.1 µM [rising, partial curve, poor fit] |
| Cc1csc(NC(=O)Cc2coc3cc(C)c(C(C)C)cc23)n1 | – | 6.31 µM [rising, full curve] |
| N#Cc1nc(COc2ccc(Br)cc2)oc1NCCN1CCOCC1 | 31.6 µM [rising, single point] | 31.6 µM [rising, single point] |
| COc1ccccc1N1CCN(C(=O)c2oc3ccc(F)cc3c2C)CC1 | – | 1 µM [rising, full curve] |

Reprinted at random: 2 compounds from above

| SMILES | AC50 [1] | AC50 [2] |
| --- | --- | --- |
| CC(C)Cc1nc(N2CCN(C(=O)c3ccccc3)CC2)c(C#N)c2c1CCC2 | 22.4 µM [falling, single point] | 15.8 µM [falling, partial curve] |
| COc1ccccc1NC(=O)Nc1nc(-c2cccnc2)nc2ccccc12 | 5.62 µM [falling, single point] | 3.16 µM [falling, single point] |

Next entries follow.

| SMILES | AC50 [1] | AC50 [2] |
| --- | --- | --- |
| Cc1ccc(C)c(NC(=S)NC(C)C(c2cccs2)N2CCOCC2)c1 (centres undefined) | – | 0.631 µM [falling, partial curve, poor fit] |
| CCOC(=O)c1[nH]c(C)c(CCC(=O)Nc2ccc(N(CC)CC)cc2C)c1C | – | 4.47 µM [falling, partial curve, poor fit] |
| Oc1ccc(/C=N/Nc2nccnc2Cl)c(O)c1 | 5.01 µM [falling, full curve, poor fit] | – |
| CCOc1ccc(CCNc2nc3c(c(=O)n(C)c(=O)n3C)n2CC)cc1OCC | – | 5.62 µM [rising, single point] |
| Cc1ccc(C)c(C(C)NC(=O)C2C3CCC(O3)C2C(=O)O)c1 (centres undefined) | – | 5.62 µM [falling, single point] |
| CCS(=O)(=O)N1CC(=O)N(c2cccc(C)c2C)C(C)(C(=O)NC2CCCCC2)C1 (centres undefined) | 1 µM [rising, full curve] | 0.794 µM [rising, full curve, poor fit] |
| CC(=O)OC(C(=O)NCS(=O)(=O)c1ccc(C)cc1)c1cccnc1 (centres undefined) | – | 2 µM [falling, partial curve, poor fit] |
| CCCCc1ccc(NC(=O)COc2cccc3c(=O)n(C)ccc23)cc1 | – | 22.4 µM [falling, partial curve, poor fit] |
| Cc1cc(C(=O)OCC(=O)N2CCN(C(=O)c3ccco3)CC2)c(C)n1-c1ccc(F)cc1 | – | 14.1 µM [rising, partial curve] |
| O=C(CSc1nnc(COc2ccc(Cl)cc2)o1)N1CCN(c2ccccc2)CC1 | 3.98 µM [falling, single point] | 3.55 µM [falling, single point] |
| NC(=O)c1c(NC(=O)CSc2nnc(Cc3ccccc3)n2Cc2ccco2)sc2c1CCC2 | 15.8 µM [rising, partial curve] | 12.6 µM [rising, partial curve] |
| Cc1ccc(NC(=O)N2CCC(CN3CCC(C)CC3)CC2)cc1F | 0.891 µM [falling, full curve, poor fit] | 0.891 µM [falling, full curve, poor fit] |
| N=c1c2c(-c3ccccc3)c(-c3ccccc3)n(Cc3ccco3)c2ncn1Cc1ccco1 | 35.5 µM [falling, single point] | 35.5 µM [falling, single point] |
| COc1ccc2oc(-c3ccccc3)c(C(N)=O)c2c1 | – | 8.91 µM [rising, partial curve] |
| C=CCCCCc1nc2ccccc2c(=O)n1N | 0.282 µM [rising, partial curve] | 0.794 µM [rising, partial curve] |
| O=c1c(O)c(-c2ccccc2)oc2cccc(O)c12 | – | 35.5 µM [falling, single point] |
| Cc1cc(/C=C\c2ccc3cc(N(C)C)ccc3[n+]2C)c(C)n1-c1ccccc1 | 10 µM [falling, partial curve, poor fit] | 12.6 µM [rising, partial curve] |
| O=C(c1ccco1)N1CCN(CCCCOc2cccc3ccccc23)CC1 | 22.4 µM [rising, single point] | 17.8 µM [rising, single point] |
| C/C(CC(=O)Nc1ccc(Cl)c(C(F)(F)F)c1)=N\NC(=O)c1ccccc1O | – | 11.2 µM [rising, partial curve] |
| CCS(=O)(=O)NCC(c1ccco1)N1CCN(c2ccc(OC)cc2)CC1 (centres undefined) | 0.355 µM [falling, full curve, poor fit] | 0.794 µM [falling, full curve, poor fit] |
| O=C(CSc1nc(O)cc(=O)n1-c1ccccc1)Nc1ccc2c3c(cccc13)CC2 | 0.0355 µM [falling, full curve, poor fit] | 3.98 µM [falling, full curve, poor fit] |
| CN(C)CCn1c(=N)n(CC(O)c2ccc(Cl)c(Cl)c2)c2ccccc21 (centres undefined) | 8.91 µM [falling, full curve, poor fit] | – |
| CC(C)Cc1cc(C(=O)Nc2cc(Br)ccc2O)no1 | – | 12.6 µM [rising, partial curve, poor fit] |
| CCSc1nnc(NC(=O)C2CCN(S(=O)(=O)c3ccccc3C(F)(F)F)CC2)s1 | – | 25.1 µM [rising, partial curve] |
| CCOc1ccc2c(c1)sc(N)[n+]2Cc1cc(C)cc2cccnc12 | – | 2 µM [rising, full curve] |
| COc1cc(OC)cc(C(=O)N[C@H](C(=O)Nc2nnc(C3CC3)s2)C(C)C)c1 | – | 15.8 µM [rising, partial curve, poor fit] |
| Cc1ccc(S(=O)(=O)N(C)c2cc(S(N)(=O)=O)c(C)cc2C)cc1 | – | 35.5 µM [rising, single point] |
